No constants are given. Whether binding was seen depends on the method and setting. Some binding calls cover weakened binding; strength is not graded here.

Amino acid sequences for entries named in this document (tags omitted). A change or cut given only in a name is not applied to a line headed by its entry. Residues count along the entry.
UniProt P48023, residues 134-281: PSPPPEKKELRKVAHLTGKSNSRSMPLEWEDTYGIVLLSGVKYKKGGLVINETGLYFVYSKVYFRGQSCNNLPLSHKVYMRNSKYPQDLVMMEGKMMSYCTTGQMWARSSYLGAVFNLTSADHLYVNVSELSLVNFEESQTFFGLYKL
UniProt P25445: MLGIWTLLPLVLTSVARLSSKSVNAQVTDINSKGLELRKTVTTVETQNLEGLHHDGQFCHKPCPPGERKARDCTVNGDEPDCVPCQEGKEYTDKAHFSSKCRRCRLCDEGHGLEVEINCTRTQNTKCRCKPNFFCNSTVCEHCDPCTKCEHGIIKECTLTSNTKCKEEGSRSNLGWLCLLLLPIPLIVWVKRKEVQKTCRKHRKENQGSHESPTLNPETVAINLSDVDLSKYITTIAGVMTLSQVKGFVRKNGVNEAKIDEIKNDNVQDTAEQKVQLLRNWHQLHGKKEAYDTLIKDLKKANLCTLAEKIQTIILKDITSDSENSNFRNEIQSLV

This experiment has as its target Recombinant Fas ligand (BioLegend) (UniProt P48023). Briefly: ELISA-based neutralization assay with conditioned medium.

On to “Fas Decoy (FD) (from UniProt P25445 26-173) (receptor)”, for which the binding result is recorded as “binds”.

These data come from US20240335537A1.
